The text below walks through data of paper PMC8339009.

By UniProt entry, the sequences of proteins in these tests, tags left out. Where a name states a change or a piece, a line headed by the entry shows the natural chain unless it says otherwise.
UniProt P61026: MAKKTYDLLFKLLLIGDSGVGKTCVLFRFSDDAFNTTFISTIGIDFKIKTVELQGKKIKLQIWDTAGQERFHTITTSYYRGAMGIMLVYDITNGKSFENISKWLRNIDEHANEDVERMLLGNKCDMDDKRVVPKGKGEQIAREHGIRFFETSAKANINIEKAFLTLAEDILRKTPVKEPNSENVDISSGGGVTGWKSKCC

No constants are given. Whether binding was seen depends on the method and setting. Binding seen in cells or lysates may run through a third protein. Some binding calls cover weakened binding; strength is not graded here.

In this assay the target is T1, SopD-RFP (S. Typhimurium) (UniProt P40722).
T1 sequence: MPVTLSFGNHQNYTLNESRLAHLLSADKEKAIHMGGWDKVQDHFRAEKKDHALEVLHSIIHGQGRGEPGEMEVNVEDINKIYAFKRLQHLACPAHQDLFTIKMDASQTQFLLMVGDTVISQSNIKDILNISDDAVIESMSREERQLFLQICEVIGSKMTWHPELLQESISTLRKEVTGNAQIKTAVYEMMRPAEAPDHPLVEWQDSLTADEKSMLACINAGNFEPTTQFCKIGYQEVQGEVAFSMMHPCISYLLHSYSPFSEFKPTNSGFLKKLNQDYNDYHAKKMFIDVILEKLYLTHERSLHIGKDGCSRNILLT
Kind of assay: co-IP; HEK 293T co-transfected with SopD-RFP and GFP-Rab10 variants; lysates (50 mM Tris-HCl pH 7.4, 150 mM NaCl, 1 mM EDTA, 1% Triton X-100) incubated overnight with RFP-Trap resin; Western blot of the elutions. A general note: A western blot detects proteins with antibodies after separation by electrophoresis.
Take “GFP-Rab10 Q68L (constitutively active) (from UniProt P61026 1-200)”: the binding entry was “binds”. On to “GFP-Rab10 T23N (dominant negative) (from UniProt P61026 1-200)”, for which the binding result is recorded as “binds”. With “GFP-Rab10 wild type (from UniProt P61026 1-200)” the entry was “binds”.
